Some of the results follow.
Columns and labels:
Assay in all cases: log2 fold change, soluble protein after heating vs DMSO (PISA); higher = thermal stabilisation; K562 cells, 10 uM, 30 min; active = over 0.2 and 3.5 SD of the protein, either way, in both replicates (recomputed)
[1] = compound: NC(=O)Nc1cc(-c2cccc(F)c2)sc1C(=O)N[C@H]1CCCNC1
How it was run: (§1)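 Soluble protein was defined as the supernatant after 21,000xg for 90 min. It came from K562 cells at 2×10^6 cells/mL given 10 μM compound for 30 min, heated in aliquots for 3 min across 48°C-58°C, pooled, and extracted in PBS with 0.5% NP-40 at 4°C, and was quantified by TMTpro 16plex LC-MS/MS with equalised channel sums. Thermal stability against control samples, from duplicates, is reported as log2 fold change.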

Sequences of proteins named here, by UniProt entry; tags and fusion partners are left off. A change or cut given only in a name is not applied to a line headed by its entry.
UniProt Q8NC42: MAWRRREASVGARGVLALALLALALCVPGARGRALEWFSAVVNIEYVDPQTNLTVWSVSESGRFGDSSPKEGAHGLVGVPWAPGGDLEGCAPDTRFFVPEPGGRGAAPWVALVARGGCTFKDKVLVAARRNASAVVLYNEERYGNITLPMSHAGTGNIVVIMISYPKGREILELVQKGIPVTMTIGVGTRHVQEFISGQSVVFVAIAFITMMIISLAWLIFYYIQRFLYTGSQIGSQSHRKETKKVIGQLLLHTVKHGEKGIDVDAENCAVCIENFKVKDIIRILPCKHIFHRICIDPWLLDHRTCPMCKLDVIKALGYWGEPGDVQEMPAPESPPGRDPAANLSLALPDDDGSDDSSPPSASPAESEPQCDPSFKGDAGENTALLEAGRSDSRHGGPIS
UniProt Q5XPI4: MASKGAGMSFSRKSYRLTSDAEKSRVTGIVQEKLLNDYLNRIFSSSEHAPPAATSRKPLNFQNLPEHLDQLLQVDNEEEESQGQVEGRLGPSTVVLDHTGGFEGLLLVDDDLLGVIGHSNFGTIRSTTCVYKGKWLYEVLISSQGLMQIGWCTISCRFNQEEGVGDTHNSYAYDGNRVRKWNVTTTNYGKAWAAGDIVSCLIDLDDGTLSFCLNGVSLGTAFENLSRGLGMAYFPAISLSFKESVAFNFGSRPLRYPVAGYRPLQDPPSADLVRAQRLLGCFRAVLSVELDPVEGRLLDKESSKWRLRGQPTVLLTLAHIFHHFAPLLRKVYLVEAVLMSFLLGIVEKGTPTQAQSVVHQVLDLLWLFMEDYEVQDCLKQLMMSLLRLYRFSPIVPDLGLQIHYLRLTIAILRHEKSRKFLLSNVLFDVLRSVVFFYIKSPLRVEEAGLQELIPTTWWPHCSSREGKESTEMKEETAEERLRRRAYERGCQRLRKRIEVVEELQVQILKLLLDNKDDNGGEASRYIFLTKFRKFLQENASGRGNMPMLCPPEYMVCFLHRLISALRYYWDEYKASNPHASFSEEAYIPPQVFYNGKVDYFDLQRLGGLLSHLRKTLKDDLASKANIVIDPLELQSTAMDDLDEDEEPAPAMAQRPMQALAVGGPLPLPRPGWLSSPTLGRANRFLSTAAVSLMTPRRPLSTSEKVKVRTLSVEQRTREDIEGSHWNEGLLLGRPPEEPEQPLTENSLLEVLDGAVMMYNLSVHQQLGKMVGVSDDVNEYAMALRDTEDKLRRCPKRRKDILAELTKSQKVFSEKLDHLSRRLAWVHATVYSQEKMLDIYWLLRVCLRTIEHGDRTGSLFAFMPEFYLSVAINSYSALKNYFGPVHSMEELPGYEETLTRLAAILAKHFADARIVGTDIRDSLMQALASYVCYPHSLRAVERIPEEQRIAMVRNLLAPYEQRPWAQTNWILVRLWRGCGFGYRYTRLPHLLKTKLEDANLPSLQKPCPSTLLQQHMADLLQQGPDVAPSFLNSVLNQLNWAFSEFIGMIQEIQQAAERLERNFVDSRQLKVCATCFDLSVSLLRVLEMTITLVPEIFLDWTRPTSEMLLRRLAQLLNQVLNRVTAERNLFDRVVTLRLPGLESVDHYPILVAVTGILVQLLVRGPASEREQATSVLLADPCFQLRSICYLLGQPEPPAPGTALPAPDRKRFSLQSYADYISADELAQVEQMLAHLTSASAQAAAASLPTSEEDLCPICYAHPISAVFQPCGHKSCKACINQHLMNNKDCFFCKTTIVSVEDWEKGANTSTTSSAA
UniProt Q96DB5: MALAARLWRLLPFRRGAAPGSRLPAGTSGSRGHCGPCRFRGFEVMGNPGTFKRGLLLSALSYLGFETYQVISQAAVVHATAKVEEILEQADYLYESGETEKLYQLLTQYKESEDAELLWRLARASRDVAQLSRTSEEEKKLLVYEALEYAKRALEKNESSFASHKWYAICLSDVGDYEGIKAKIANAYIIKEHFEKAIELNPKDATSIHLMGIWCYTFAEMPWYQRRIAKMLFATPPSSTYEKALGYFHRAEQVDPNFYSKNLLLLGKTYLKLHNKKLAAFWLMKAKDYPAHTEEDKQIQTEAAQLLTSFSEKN
UniProt Q06330: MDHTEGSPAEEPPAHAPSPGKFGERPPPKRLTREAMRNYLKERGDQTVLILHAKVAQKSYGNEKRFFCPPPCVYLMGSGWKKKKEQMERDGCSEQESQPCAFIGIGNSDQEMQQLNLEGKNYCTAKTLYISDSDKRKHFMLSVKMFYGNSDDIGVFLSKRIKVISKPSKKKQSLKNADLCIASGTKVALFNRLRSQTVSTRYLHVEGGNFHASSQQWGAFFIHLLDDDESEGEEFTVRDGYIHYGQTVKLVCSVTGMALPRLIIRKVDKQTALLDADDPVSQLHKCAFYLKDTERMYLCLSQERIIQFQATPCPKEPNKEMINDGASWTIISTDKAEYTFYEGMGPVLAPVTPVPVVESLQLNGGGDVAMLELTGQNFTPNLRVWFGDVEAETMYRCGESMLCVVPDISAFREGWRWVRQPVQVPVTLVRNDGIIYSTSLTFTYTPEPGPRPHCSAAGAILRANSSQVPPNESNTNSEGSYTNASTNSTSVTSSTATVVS
UniProt P22670: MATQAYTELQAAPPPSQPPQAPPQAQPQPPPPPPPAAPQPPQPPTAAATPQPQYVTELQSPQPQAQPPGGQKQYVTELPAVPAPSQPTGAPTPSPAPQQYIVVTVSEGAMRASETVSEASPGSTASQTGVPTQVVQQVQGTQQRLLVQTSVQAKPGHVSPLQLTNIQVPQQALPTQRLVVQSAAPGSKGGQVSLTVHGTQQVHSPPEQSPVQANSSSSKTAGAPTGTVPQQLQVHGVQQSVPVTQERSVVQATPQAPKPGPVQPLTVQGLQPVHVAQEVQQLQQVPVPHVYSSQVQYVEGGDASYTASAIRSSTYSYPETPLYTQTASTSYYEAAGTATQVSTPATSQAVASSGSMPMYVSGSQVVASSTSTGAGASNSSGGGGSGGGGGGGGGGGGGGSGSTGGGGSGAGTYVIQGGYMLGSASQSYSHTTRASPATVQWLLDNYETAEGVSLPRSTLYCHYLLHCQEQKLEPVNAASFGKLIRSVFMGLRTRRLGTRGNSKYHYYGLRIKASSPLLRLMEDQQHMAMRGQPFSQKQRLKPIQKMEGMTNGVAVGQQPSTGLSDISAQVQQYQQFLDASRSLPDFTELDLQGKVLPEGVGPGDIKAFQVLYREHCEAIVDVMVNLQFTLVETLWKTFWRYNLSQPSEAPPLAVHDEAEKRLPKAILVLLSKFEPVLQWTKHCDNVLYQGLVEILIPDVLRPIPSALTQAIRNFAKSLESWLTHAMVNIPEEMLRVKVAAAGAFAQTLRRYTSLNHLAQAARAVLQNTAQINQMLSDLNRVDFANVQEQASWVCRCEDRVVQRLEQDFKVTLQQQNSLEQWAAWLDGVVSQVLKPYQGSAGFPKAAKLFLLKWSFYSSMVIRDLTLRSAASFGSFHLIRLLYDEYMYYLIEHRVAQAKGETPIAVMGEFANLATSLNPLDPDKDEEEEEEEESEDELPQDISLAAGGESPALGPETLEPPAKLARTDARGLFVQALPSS
UniProt Q9P260: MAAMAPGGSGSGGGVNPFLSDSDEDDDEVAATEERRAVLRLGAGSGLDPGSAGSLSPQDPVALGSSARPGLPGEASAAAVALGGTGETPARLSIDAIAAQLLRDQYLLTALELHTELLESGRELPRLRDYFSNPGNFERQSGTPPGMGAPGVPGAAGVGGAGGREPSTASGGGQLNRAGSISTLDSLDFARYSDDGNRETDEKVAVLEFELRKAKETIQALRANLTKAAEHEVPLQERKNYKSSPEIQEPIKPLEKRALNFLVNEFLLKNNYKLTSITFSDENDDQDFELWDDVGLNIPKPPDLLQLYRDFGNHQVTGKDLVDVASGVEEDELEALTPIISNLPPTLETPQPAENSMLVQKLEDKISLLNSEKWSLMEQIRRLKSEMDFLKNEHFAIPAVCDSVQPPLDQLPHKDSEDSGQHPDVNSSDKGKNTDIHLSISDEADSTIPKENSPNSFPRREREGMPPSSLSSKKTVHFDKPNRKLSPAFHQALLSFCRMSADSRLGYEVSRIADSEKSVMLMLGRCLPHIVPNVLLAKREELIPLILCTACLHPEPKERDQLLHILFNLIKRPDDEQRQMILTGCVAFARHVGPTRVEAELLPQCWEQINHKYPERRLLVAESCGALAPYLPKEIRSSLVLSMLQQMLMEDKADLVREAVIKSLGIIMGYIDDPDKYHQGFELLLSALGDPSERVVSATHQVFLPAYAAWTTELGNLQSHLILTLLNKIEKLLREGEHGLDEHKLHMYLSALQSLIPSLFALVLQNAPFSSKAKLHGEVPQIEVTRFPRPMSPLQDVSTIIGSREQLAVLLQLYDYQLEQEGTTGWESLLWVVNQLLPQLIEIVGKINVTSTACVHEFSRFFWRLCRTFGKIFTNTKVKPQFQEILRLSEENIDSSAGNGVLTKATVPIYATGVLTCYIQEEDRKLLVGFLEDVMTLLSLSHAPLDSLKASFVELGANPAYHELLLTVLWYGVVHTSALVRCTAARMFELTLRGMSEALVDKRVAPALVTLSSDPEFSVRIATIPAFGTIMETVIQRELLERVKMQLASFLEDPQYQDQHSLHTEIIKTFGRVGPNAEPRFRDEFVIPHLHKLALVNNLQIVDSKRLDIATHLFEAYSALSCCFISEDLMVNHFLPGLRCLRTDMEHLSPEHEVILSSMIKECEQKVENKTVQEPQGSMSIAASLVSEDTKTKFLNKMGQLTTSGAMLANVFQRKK
UniProt Q6NUK4: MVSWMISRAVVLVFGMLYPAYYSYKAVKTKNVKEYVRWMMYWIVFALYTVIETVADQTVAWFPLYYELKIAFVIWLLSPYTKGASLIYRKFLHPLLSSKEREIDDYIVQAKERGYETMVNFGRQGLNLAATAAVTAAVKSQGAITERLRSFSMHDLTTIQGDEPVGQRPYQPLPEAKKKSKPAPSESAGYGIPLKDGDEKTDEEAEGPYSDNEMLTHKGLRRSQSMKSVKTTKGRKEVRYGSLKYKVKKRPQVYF
UniProt P52758: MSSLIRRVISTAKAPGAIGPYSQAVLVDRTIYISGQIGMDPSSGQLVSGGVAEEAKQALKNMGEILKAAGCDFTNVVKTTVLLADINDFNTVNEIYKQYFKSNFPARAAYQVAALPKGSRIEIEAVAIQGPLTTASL
UniProt Q96HR9: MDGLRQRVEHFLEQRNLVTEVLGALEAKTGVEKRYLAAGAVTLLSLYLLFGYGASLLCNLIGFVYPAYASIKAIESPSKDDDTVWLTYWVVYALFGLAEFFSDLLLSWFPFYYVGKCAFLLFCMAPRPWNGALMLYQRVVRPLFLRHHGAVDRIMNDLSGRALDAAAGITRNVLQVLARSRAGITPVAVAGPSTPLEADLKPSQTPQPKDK
UniProt Q15293: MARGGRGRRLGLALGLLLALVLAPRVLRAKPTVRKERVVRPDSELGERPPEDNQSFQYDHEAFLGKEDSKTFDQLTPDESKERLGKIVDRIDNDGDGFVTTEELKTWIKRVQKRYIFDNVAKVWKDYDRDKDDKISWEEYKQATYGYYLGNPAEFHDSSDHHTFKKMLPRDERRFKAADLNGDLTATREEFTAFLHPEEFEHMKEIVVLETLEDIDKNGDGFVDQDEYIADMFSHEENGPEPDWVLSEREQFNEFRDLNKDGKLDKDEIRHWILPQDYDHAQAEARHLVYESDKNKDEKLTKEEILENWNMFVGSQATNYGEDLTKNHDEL
UniProt P82980: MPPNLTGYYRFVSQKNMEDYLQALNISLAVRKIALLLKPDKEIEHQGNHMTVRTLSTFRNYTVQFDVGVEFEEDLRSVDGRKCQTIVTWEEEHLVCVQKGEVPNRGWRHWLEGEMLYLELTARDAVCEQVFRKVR
UniProt Q8TAC1: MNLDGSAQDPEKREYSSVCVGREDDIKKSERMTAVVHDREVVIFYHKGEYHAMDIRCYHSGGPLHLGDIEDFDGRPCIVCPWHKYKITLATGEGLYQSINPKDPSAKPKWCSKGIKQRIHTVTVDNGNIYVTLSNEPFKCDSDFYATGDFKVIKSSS
UniProt P48382: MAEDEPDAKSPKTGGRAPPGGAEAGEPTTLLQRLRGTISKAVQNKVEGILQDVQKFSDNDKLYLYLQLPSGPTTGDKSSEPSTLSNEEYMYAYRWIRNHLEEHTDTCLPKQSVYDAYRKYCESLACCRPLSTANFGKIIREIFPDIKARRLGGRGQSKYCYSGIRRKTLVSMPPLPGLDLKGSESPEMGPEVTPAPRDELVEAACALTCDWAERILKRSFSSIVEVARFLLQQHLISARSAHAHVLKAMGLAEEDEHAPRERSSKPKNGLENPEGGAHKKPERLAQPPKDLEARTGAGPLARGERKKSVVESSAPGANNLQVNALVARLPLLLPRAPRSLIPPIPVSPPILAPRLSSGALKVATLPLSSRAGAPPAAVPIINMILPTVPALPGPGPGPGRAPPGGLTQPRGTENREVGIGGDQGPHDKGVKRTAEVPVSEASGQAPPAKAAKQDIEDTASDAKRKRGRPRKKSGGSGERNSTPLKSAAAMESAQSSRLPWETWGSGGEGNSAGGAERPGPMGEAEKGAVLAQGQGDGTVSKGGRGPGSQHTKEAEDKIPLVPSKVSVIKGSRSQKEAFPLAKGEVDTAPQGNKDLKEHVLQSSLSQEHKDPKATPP

[2] = compound: NC(=O)c1cnc(N[C@@H]2CCCC[C@@H]2N)nc1Nc1cccc(-n2nccn2)c1
How it was run: as §1

[3] = compound: NC1(c2ccc(-c3nc4ccn5c(=O)[nH]nc5c4cc3-c3ccccc3)cc2)CCC1
How it was run: as §1

[4] = compound: NCC(=O)Nc1ccc(-n2nc(C(F)(F)F)cc2-c2ccc3c(ccc4ccccc43)c2)cc1
How it was run: as §1

entinostat = compound: Nc1ccccc1NC(=O)c1ccc(CNC(=O)OCc2cccnc2)cc1 [entinostat]
How it was run: as §1

vorinostat = compound: O=C(CCCCCCC(=O)Nc1ccccc1)NO [vorinostat]
How it was run: as §1

citarinostat = compound: O=C(CCCCCCNC(=O)c1cnc(N(c2ccccc2)c2ccccc2Cl)nc1)NO [citarinostat]
How it was run: as §1

silmitasertib = compound: O=C(O)c1ccc2c(c1)nc(Nc1cccc(Cl)c1)c1ccncc12 [silmitasertib]
How it was run: as §1

[5] = compound: O=C1NC(=O)C(c2cnc3ccccn23)=C1c1cn2c3c(cc(F)cc13)CN(C(=O)N1CCCCC1)CC2
How it was run: as §1

[6] = compound: c1cc(OCCN2CCCCC2)cc(-c2n[nH]c3ccc(-c4nnc[nH]4)cc23)c1
How it was run: as §1

entospletinib = compound: c1cn2cc(-c3ccc4cn[nH]c4c3)nc(Nc3ccc(N4CCOCC4)cc3)c2n1 [entospletinib]
How it was run: as §1

Measured: log2 fold change

RNF113A (UniProt O15541)
inactive: [1] 0.014 | [2] 0.046 | [3] 0.032 | [4] 0.017 | entinostat -0.007 | vorinostat -0.038 | citarinostat 0.001 | silmitasertib 0.035 | [5] -0.08 | [6] 0.023 | entospletinib 0.024

RHOT2 (UniProt Q8IXI1)
inactive: [1] -0.08 | [2] -0.035 | [3] -0.047 | [4] -0.052 | entinostat -0.02 | vorinostat 0.022 | citarinostat 0.057 | silmitasertib -0.001 | [5] 0.019 | [6] -0.03 | entospletinib -0.042

RNF149 (UniProt Q8NC42)
inactive: [1] -0.075 | [2] -0.038 | [3] 0.038 | [4] -0.082 | entinostat -0.003 | vorinostat -0.009 | citarinostat 0.035 | silmitasertib 0.009 | [5] -0.084 | [6] -0.113 | entospletinib -0.016

RILP (UniProt Q96NA2)
inactive: [1] 0.013 | [2] -0.01 | [3] -0.036 | [4] 0.006 | entinostat -0.024 | vorinostat 0.062 | citarinostat 0.044 | silmitasertib -0.077 | [5] -0.034 | [6] 0.104 | entospletinib -0.001

Taken from above (2 entries):
RNF113A (UniProt O15541)
inactive: [1] 0.014 | [2] 0.046 | [3] 0.032 | [4] 0.017 | entinostat -0.007 | vorinostat -0.038 | citarinostat 0.001 | silmitasertib 0.035 | [5] -0.08 | [6] 0.023 | entospletinib 0.024

RHOT2 (UniProt Q8IXI1)
inactive: [1] -0.08 | [2] -0.035 | [3] -0.047 | [4] -0.052 | entinostat -0.02 | vorinostat 0.022 | citarinostat 0.057 | silmitasertib -0.001 | [5] 0.019 | [6] -0.03 | entospletinib -0.042

(next part)

RCL1 (UniProt Q9Y2P8)
inactive: [1] 0.087 | [2] 0.058 | [3] 0.221 | [4] 0.062 | entinostat -0.021 | vorinostat 0.066 | citarinostat -0.081 | silmitasertib 0.147 | [5] 0.157 | [6] -0.253 | entospletinib 0.062

RNF123 isoform 2 (UniProt Q5XPI4)
inactive: [1] -0.062 | [2] -0.051 | [3] -0.093 | [4] -0.03 | entinostat -0.013 | vorinostat 0.023 | citarinostat 0.047 | silmitasertib 0.085 | [5] -0.059 | [6] -0.042 | entospletinib -0.002

RMDN1 (UniProt Q96DB5)
inactive: [1] -0.04 | [2] -0.037 | [3] -0.127 | [4] 0.028 | entinostat 0.01 | vorinostat 0.028 | citarinostat 0.048 | silmitasertib -0.04 | [5] -0.051 | [6] -0.028 | entospletinib 0.013

RBPJ (UniProt Q06330)
inactive: [1] -0.032 | [2] -0.06 | [3] -0.041 | [4] -0.019 | entinostat -0.036 | vorinostat 0.031 | citarinostat 0.009 | silmitasertib 0.025 | [5] 0.043 | [6] -0.035 | entospletinib -0.016

RFX1 (UniProt P22670)
inactive: [1] 0.071 | [2] -0.016 | [3] -0.102 | [4] -0.049 | entinostat -0.01 | vorinostat -0.063 | citarinostat -0.056 | silmitasertib 0.015 | [5] 0.016 | [6] 0.002 | entospletinib -0.026

RHOB (UniProt P62745)
inactive: [1] -0.089 | [2] 0.159 | [3] -0.065 | [4] 0.138 | entinostat 0.016 | vorinostat 0.023 | citarinostat 0.146 | silmitasertib 0.009 | [5] -0.291 | [6] -0.039 | entospletinib -0.028

RNF138 (UniProt Q8WVD3)
inactive: [1] -0.012 | [2] -0.331 | [3] -0.049 | [4] 0.018 | entinostat 0.061 | vorinostat -0.05 | citarinostat 0.02 | silmitasertib -0.06 | [5] -0.006 | [6] -0.034 | entospletinib 0.026

RCN2 isoform 2 (UniProt Q14257)
inactive: [1] 0.002 | [2] -0.004 | [3] 0.003 | [4] 0.009 | entinostat -0.009 | vorinostat -0.029 | citarinostat 0.035 | silmitasertib 0.005 | [5] 0.007 | [6] -0.083 | entospletinib -0.027

RELCH isoform 2 (UniProt Q9P260)
inactive: [1] -0.005 | [2] 0.026 | [3] -0.099 | [4] 0.006 | entinostat -0.073 | vorinostat -0.151 | citarinostat 0.01 | silmitasertib 0.088 | [5] -0.198 | [6] -0.005 | entospletinib 0

RFC2 (UniProt P35250)
inactive: [1] -0.026 | [2] -0.006 | [3] -0.053 | [4] 0.014 | entinostat -0.001 | vorinostat -0.006 | citarinostat 0.015 | silmitasertib -0.008 | [5] -0.025 | [6] -0.025 | entospletinib -0.063

REEP3 (UniProt Q6NUK4)
inactive: [1] -0.144 | [2] -0.076 | [3] -0.037 | [4] -0.088 | entinostat 0.033 | vorinostat 0.072 | citarinostat 0.048 | silmitasertib -0.064 | [5] 0.105 | [6] -0.143 | entospletinib -0.126

RIDA (UniProt P52758)
inactive: [1] -0.026 | [2] 0.005 | [3] 0.03 | [4] 0.184 | entinostat -0.003 | vorinostat -0.038 | citarinostat 0.034 | silmitasertib 0.023 | [5] -0.094 | [6] 0.025 | entospletinib 0.017

REEP6 (UniProt Q96HR9)
inactive: [1] -0.044 | [2] -0.092 | [3] -0.017 | [4] 0.015 | entinostat -0.017 | vorinostat -0.137 | citarinostat 0.031 | silmitasertib 0.03 | [5] -0.031 | [6] 0.002 | entospletinib 0.03

RHOT1 isoform 3 (UniProt Q8IXI2)
inactive: [1] 0 | [2] -0.027 | [3] -0.139 | [4] -0.039 | entinostat 0.02 | vorinostat -0.025 | citarinostat 0.062 | silmitasertib 0.023 | [5] -0.027 | [6] -0.043 | entospletinib -0.023

RCE1 (UniProt Q9Y256)
inactive: [1] -0.002 | [2] -0.039 | [3] -0.02 | [4] 0.108 | entinostat -0.075 | vorinostat 0.207 | citarinostat -0.029 | silmitasertib 0.159 | [5] 0.498 | [6] 0.019 | entospletinib 0.013

RCC2 (UniProt Q9P258)
inactive: [1] -0.054 | [2] -0.039 | [3] -0.044 | [4] -0.054 | entinostat -0.01 | vorinostat -0.007 | citarinostat 0.01 | silmitasertib -0.036 | [5] -0.088 | [6] 0.008 | entospletinib 0.005

RCN1 (UniProt Q15293)
inactive: [1] -0.012 | [2] 0.012 | [3] -0.045 | [4] 0.025 | entinostat -0.008 | vorinostat 0.062 | citarinostat 0.017 | silmitasertib 0.031 | [5] -0.019 | [6] -0.03 | entospletinib 0.043

RCCD1 (UniProt A6NED2)
inactive: [1] -0.096 | [2] 0.022 | [3] 0.004 | [4] 0.055 | entinostat 0.022 | vorinostat 0.018 | citarinostat 0.059 | silmitasertib -0.072 | [5] -0.029 | [6] -0.04 | entospletinib 0.007

RBP5 (UniProt P82980)
inactive: [1] 0.182 | [2] 0.047 | [3] -0.022 | entinostat 0 | vorinostat 0.143 | citarinostat 0.121 | silmitasertib -0.002 | [5] 0.083 | [6] 0 | entospletinib -0.341

RIOX2 (UniProt Q8IUF8)
inactive: [1] -0.089 | [2] -0.089 | [3] -0.032 | [4] 0.061 | entinostat 0.081 | vorinostat 0.019 | silmitasertib 0.049 | [5] 0.164

RC3H1 (UniProt Q5TC82)
inactive: [1] 0.068 | [2] 0.304 | [3] 0.176 | [4] 0.018 | entinostat -0.004 | vorinostat -0.045 | citarinostat -0.112 | silmitasertib 0.146 | [5] 0.142 | [6] -0.117 | entospletinib 0.156

RFESD isoform 2 (UniProt Q8TAC1)
inactive: [1] 0.016 | [2] 0.007 | [3] -0.002 | [4] 0.019 | entinostat -0.061 | vorinostat -0.072 | citarinostat 0.044 | silmitasertib 0.061 | [5] -0.039 | [6] -0.054 | entospletinib 0.013

RICTOR isoform 3 (UniProt Q6R327)
inactive: [1] 0.075 | [2] 0.054 | entinostat 0.044 | vorinostat 0.211 | citarinostat 0.066 | [5] 0.289 | [6] -0.155

RFX5 (UniProt P48382)
inactive: [1] -0.074 | [2] -0.324 | entinostat 0.013 | vorinostat -0.057 | [5] 0.073

From the supplement of paper PMC10849652
